Chains of the proteins cited; added tags and fusions are not shown. Residues count along the entry.
UniProt P52333, 811-1124: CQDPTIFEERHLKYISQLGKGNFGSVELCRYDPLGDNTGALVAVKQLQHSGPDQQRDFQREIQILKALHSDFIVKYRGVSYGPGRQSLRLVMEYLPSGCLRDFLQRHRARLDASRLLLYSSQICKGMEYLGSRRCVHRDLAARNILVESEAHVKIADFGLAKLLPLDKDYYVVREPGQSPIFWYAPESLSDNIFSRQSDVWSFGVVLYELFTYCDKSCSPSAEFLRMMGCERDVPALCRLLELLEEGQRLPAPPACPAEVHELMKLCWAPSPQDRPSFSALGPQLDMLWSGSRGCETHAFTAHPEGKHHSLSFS

According to patent US10112907B2, “Substituted indazoles for treating tendon and/or ligament injuries” (NOVARTIS AG, priority 2016, dated 2018):

Assays:
[1] = target: recombinant human Jak3 (aa811-1124) (Homo sapiens (Human), UniProt P52333); format: biochemical
[2] = system: Scleraxis (Scx) gene transcriptional activation in TT-D6 Scx-luciferase (ScxL) cell line; test: SCX-LUC in vitro assay (Scx-luciferase reporter); format: cell-based; settings: Mus musculus, read-out: Scx-Luc (EC50 uM)
[3] = system: Tenomodulin (Tnmd) gene expression in rat tail tendon fascicles; test: Ex vivo assay, Tnmd mRNA in tendon fascicles (qPCR); format: cell-based, Sprague Dawley rat; settings: read-out: Ex vivo Tnmd (EC50 uM)
[4] = system: collagen type I (Col1a2) gene expression in rat tail tendon fascicles; test: Ex vivo assay, Col1a2 mRNA in tendon fascicles (qPCR); format: cell-based, Sprague Dawley rat; settings: read-out: Ex vivo Col1a2 (EC50 uM)

EC50 [2] | EC50 [3] | EC50 [4] | Structure (SMILES) | IC50 [1]
 |  |  | CC[C@@](C)(Nc1ccnc(-c2c[nH]c3ncccc23)n1)C(=O)NCC(F)(F)F [reference compound] | 0.01 µM
0.37 µM | 1.26 µM | 2.75 µM | C[C@@H]1CCN(C(=O)CC#N)C[C@@H]1N(C)c1ncnc2[nH]ccc12 [reference compound] | 
